Patent US8993626B2 (The United States of America, as represented by the …, priority 2010, dated 2015)
For at least one compound, name, drawing or mass did not settle the structure.

System: ARPE-19 cells
Assay: qRT-PCR of inflammatory cytokines and ER stress markers, 7KCh-mediated inflammation
Type: cell-based
Conditions: 8 μM 7KCh alone or with 1 μM fatty acid, 24 hr
Description: FIGS. 13A-13D depict mRNA expressions of (A) VEGF, (B) IL-6, (C) GRP78, and (D) CHOP in response to 8 μM 7KCh with or without 1 μM long-chain fatty acids. Error bars indicate the standard deviations. *p<0.05 comparing to 7KCh, n=3. Two-tailed Student's t-test.
Error bars indicate the standard deviations. *p<0.05 comparing to 7KCh, n=4. Two-tailed Student's t-test.
Error bars indicate the standard deviations. *p<0.05 comparing to 7KCh, n=3-4. Two-tailed Student's t-test.
ARPE-19 cells were seeded in 24-well plates with 1×10^5 cells per well and allowed to recover for 16-24 hr. Once confluency reached approximately 90%, the effect of the fatty acids against 7KCh-mediated cell death was examined 24 hr after incubation in serum-free medium with 12 μM 7KCh. Fatty acids were tested at 0.1, 0.5, 1, 5 and 10 μM concentrations. The effects of the fatty acids against 7KCh-mediated inflammation and ER stress were examined by incubating cells in 1 μM fatty acids with either 8 μM 7KCh (24 hr for quantitative real-time PCR (qRT-PCR), 24 and 48 hr for immunoblot), or 6 μM 7KCh for 48 hr (for ELISA). Three individual experiments were performed for each treatment with quadruplicate measurements performed for each experiment in 24-well plates.
The RNA was extracted using RNeasy Mini Kit (Qiagen, Valencia, Calif.). The reverse transcription was performed with reagents and kits from Invitrogen. Quantification of mRNA expression was performed using the Taqman gene expression assays and the following primers (VEGFa, Hs00173626_m1; IL-1β, Hs01555413_m1; IL-6, Hs00174131_m1; IL-8, Hs00174103_m1; IκBα, Hs00153283_m1; GRP78, Hs99999174_m1; CHOP, Hs01090850_m1; NOX2, Hs00166163_m1; NOX4, Hs01558199_m1; SCD, Hs00748952 s1; TNF-α, Hs00174128_m1; TGF-β1, Hs00998133_m1; GAPD, 4352934e). GAPD expression was used as an endogenous standard. All qRT-PCR experiments were measured in triplicates in an ABI 7500 Real-Time PCR Instrument (Applied Biosystems, Foster City, Calif.). The results of each treatment were normalized and presented in percentage relative to the vehicle-only control.

## CC/C=C\C/C=C\C/C=C\C/C=C\C/C=C\C/C=C\CCC(=O)O [docosahexaenoic acid]
FIG. 13A
  VEGF mRNA expression: essentially ineffective
FIG. 13B
  IL-6 mRNA expression: somewhat effective
FIG. 13C
  GRP78 mRNA expression: somewhat effective
FIG. 13D
  CHOP mRNA expression: somewhat effective
